PubChem BioAssay AID1159578 – Peter MacCallum Cancer Centre – 2015
Aim: 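Genome-wide hunt for genes controlling movement of lymphatic endothelial cells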 (primary screen). Cells: human lymphatic endothelial cells. Reagents: siRNA pool against human genes, 40 nM. Time to read-out: 48 h after transfection. Measurement: 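Cells stained with dye and imaged after a scratch; covered wound area and nuclei counted, duplicates averaged, migration set against mock wells and turned into a robust z-score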. Reading the numbers: migration robust z-score: higher = faster migration into the scratch; nuclei per well: higher = more cells in the well. Active means: 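Pools averaging fewer than 3300 nuclei are never called; remaining pools count as changed when migration robust z lies outside -2 to 2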. Calls: active = migration changed; inactive = no migration change, or too few cells.
The deposit covers about 18,000 reagents; this is a part drawn at random. In the full data, about 1,030 (5.7%) got an active call. 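Inactive calls also include pools with fewer than 3300 nuclei, whose migration was not assessed.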 The raw values are shown without normalisation. Unmarked entries are inactive. Not all columns of the deposit are shown. Reagent sequences are not shown.

gene | migration robust z-score | nuclei per well, duplicate mean
CAPN12 (GeneID 147968) | -1.53 | 3728
ENY2 (GeneID 56943) | 2.25 (active) | 6894
CAPS2 (GeneID 84698) | 0.35 | 5682
OTUD6A (GeneID 139562) | 1.02 | 5643
FEV (GeneID 54738) | -0.55 | 5004
PRODH2 (GeneID 58510) | -0.2 | 4582
RPL18A (GeneID 6142) | -0.73 | 5652
KIR3DP1 (GeneID 548594) | -0.3 | 5948
ZNF232 (GeneID 7775) | 0 | 5748
CLCN4 (GeneID 1183) | 0.8 | 5134
AKR1B1 (GeneID 231) | -1.25 | 5450
COG2 (GeneID 22796) | 0.36 | 6471
GREM1 (GeneID 26585) | -0.21 | 5078
LAMP1 (GeneID 3916) | -0.74 | 5431
CRAMP1 (GeneID 57585) | 0.3 | 5612
HEPACAM (GeneID 220296) | 1.19 | 5386
MAN1C1 (GeneID 57134) | -0.68 | 5370
CHPT1 (GeneID 56994) | 0.16 | 3800
COLGALT1 (GeneID 79709) | -0.4 | 5861
CXXC5 (GeneID 51523) | -0.79 | 4128
FTCD (GeneID 10841) | 0.71 | 5393
NTRK2 (GeneID 4915) | -0.13 | 5528
KRCC1 (GeneID 51315) | -0.44 | 6874
OR13C5 (GeneID 138799) | 0.68 | 5696
SMIM11 (GeneID 54065) | 0.8 | 7234
ZP2 (GeneID 7783) | -0.84 | 5984
VNN2 (GeneID 8875) | 1.22 | 5832
ZNF675 (GeneID 171392) | -0.2 | 5830
CXADR (GeneID 1525) | 1.03 | 6591
INSYN2A (GeneID 642938) | -1.06 | 5568
NPRL3 (GeneID 8131) | 0.14 | 5616
SNRNP48 (GeneID 154007) | 0.52 | 5900
SLC67A1 (GeneID 5002) | -0.16 | 5051
POLM (GeneID 27434) | -0.62 | 5022
TMEM222 (GeneID 84065) | 0.86 | 4740
F7 (GeneID 2155) | -0.7 | 5426
LINC01588 (GeneID 283551) | 0.22 | 6718
APC2 (GeneID 10297) | -0.36 | 5726
TYW2 (GeneID 55039) | 1.27 | 6810
SFN (GeneID 2810) | 0.05 | 6218
CNTN1 (GeneID 1272) | 1.94 | 5636
SPATA45 (GeneID 149643) | 0.06 | 4461
NDUFAF4 (GeneID 29078) | 0.04 | 5616
KIAA0753 (GeneID 9851) | 0.22 | 5496
FAM171B (GeneID 165215) | 1.23 | 6176
PROK2 (GeneID 60675) | 0.16 | 4699
OR52E6 (GeneID 390078) | -1.51 | 5382
LDHB (GeneID 3945) | 0.18 | 3126
UGT2A3 (GeneID 79799) | -0.11 | 6715
CBS (GeneID 875) | 0.76 | 5890
CTSW (GeneID 1521) | -0.11 | 5368
EGFL8 (GeneID 80864) | -0.06 | 5062
GNB1 (GeneID 2782) | -1.06 | 5013
INPP5K (GeneID 51763) | -0.57 | 4883
CD180 (GeneID 4064) | -0.29 | 6820
MAGEB2 (GeneID 4113) | 0.38 | 5252
E2F6 (GeneID 1876) | 0.7 | 6882
COL1A1 (GeneID 1277) | 0.2 | 6294
NAPSA (GeneID 9476) | -0.08 | 8676
HSPA12B (GeneID 116835) | 0.48 | 6262
PAICS (GeneID 10606) | -0.34 | 5550
MS4A14 (GeneID 84689) | -0.48 | 4740
OR6C1 (GeneID 390321) | -0.32 | 6076
HSPA8 (GeneID 3312) | -0.24 | 5804
PRLR (GeneID 5618) | 0.02 | 5950
C17orf75 (GeneID 64149) | -0.37 | 5587
OTOP2 (GeneID 92736) | -0.98 | 5345
PLA2G4F (GeneID 255189) | 0.13 | 5510
ZNF708 (GeneID 7562) | 0.18 | 7220
FAM163B (GeneID 642968) | -0.08 | 6684
NPHP1 (GeneID 4867) | 0.24 | 5719
ZNF566 (GeneID 84924) | 0.4 | 6118
METTL21A (GeneID 151194) | 0.05 | 6292

No new results follow: an excerpt of the list.
gene | migration robust z-score | nuclei per well, duplicate mean
SLC67A1 (GeneID 5002) | -0.16 | 5051
POLM (GeneID 27434) | -0.62 | 5022
TMEM222 (GeneID 84065) | 0.86 | 4740
F7 (GeneID 2155) | -0.7 | 5426
LINC01588 (GeneID 283551) | 0.22 | 6718
APC2 (GeneID 10297) | -0.36 | 5726
TYW2 (GeneID 55039) | 1.27 | 6810
SFN (GeneID 2810) | 0.05 | 6218
CNTN1 (GeneID 1272) | 1.94 | 5636
SPATA45 (GeneID 149643) | 0.06 | 4461
NDUFAF4 (GeneID 29078) | 0.04 | 5616
